PubChem BioAssay AID1508597 | Cure First – 2020
Aim: 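Survival screen with siRNA in ovarian cancer cells derived from patients, with or without rucaparib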 (primary screen). Cells: human ovarian carcinoma lines grown from tumours: OCI-P5x (papillary serous) and OCI-C5x (clear cell). Reagents: siRNA pool against human genes, 1.25 pmol siRNA per well. Time to read-out: 72 h or 96 h, depending on the cell culture. Challenge: rucaparib 20 µM (about IC30) or vehicle, present until read-out. Rucaparib or vehicle: Vehicle. Cell line: OCI-C5x (clear cell). Measured: 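Luminescent ATP-based viability assay read 72 or 96 h after transfection, depending on culture, given as normalised percent viability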. Reading the numbers: viability, normalised: higher = more viable cells remaining. Call rule: 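a well counts as a hit if its normalised viability is under 80 percent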. Calls: active = viability under 80%; inactive = viability 80% or more.
Shown is an unselected part of the about 2,100 reagents, under one of the conditions tested. 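Calls flag viability under 80% in either arm, not effects specific to rucaparib; the reference for percent is not stated.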 A number with no mark means an inactive call. A reagent listed more than once was tested more than once; the source does not tell the runs apart. The record does not give: the 100% reference.

Gene	technical replicate	viability, normalised (%)
MSX1 (msh homeobox 1)	1	61.7 (active)
MSX1 (msh homeobox 1)	2	50 (active)
MSX1 (msh homeobox 1)	3	48.4 (active)
APP (amyloid beta precursor protein)	1	40.2 (active)
APP (amyloid beta precursor protein)	2	31.6 (active)
APP (amyloid beta precursor protein)	3	33.6 (active)
FANCA (FA complementation group A)	1	55 (active)
FANCA (FA complementation group A)	2	55.5 (active)
FANCA (FA complementation group A)	3	50.7 (active)
ATF7IP2 (activating transcription factor 7 interacting protein 2)	1	46.6 (active)
ATF7IP2 (activating transcription factor 7 interacting protein 2)	2	62.5 (active)
ATF7IP2 (activating transcription factor 7 interacting protein 2)	3	34.6 (active)
PRKACB (protein kinase cAMP-activated catalytic subunit beta)	1	69.1 (active)
PRKACB (protein kinase cAMP-activated catalytic subunit beta)	2	74 (active)
PRKACB (protein kinase cAMP-activated catalytic subunit beta)	3	47.4 (active)
ATP5F1D (ATP synthase F1 subunit delta)	1	77.5 (active)
ATP5F1D (ATP synthase F1 subunit delta)	2	82.7
ATP5F1D (ATP synthase F1 subunit delta)	3	74.6 (active)
NLGN1 (neuroligin 1)	1	24.9 (active)
NLGN1 (neuroligin 1)	2	35.5 (active)
NLGN1 (neuroligin 1)	3	23.1 (active)

Targets above whose target name begins with N or n:
Gene	technical replicate	viability, normalised (%)
NLGN1 (neuroligin 1)	1	24.9 (active)
NLGN1 (neuroligin 1)	2	35.5 (active)
NLGN1 (neuroligin 1)	3	23.1 (active)

The list goes on:
Gene	technical replicate	viability, normalised (%)
SSRP1 (structure specific recognition protein 1)	1	51.2 (active)
SSRP1 (structure specific recognition protein 1)	1	47.4 (active)
SSRP1 (structure specific recognition protein 1)	2	46.2 (active)
SSRP1 (structure specific recognition protein 1)	2	67.7 (active)
SSRP1 (structure specific recognition protein 1)	3	51.3 (active)
SSRP1 (structure specific recognition protein 1)	3	36.3 (active)
CHMP1B (charged multivesicular body protein 1B)	1	22.5 (active)
CHMP1B (charged multivesicular body protein 1B)	2	47.2 (active)
CHMP1B (charged multivesicular body protein 1B)	3	55.2 (active)
DHX38 (DEAH-box helicase 38)	1	60 (active)
DHX38 (DEAH-box helicase 38)	2	55 (active)
DHX38 (DEAH-box helicase 38)	3	51.9 (active)
PWWP3B (PWWP domain containing 3B)	1	53.3 (active)
PWWP3B (PWWP domain containing 3B)	2	62 (active)
PWWP3B (PWWP domain containing 3B)	3	53.1 (active)
TDRD3 (tudor domain containing 3)	1	43.4 (active)
TDRD3 (tudor domain containing 3)	2	43 (active)
TDRD3 (tudor domain containing 3)	3	44.9 (active)
